Reference: article PMC9233675, “Ru(II) photocages enable precise control over enzyme activity with red light” (Nature Communications, 2022)
Marks after values point to notes of the source that are not given here.

Test: Photoejection studies: quantum yield for photosubstitution
Assay type: physicochemical
Settings: for ΦPS: λirr = 470 nm

| Compound | Φ(PS) Opti-MEM (optical approach, 470 nm) | Φ(PS) CH3OH (CH3OH, 470 nm) | ΦPS (in MeCN by HPLC) | ΦPS (quantum yield for photosubstitution, 5% DMSO in H2O, optical approach, n = 3) |
| --- | --- | --- | --- | --- |
| COc1ccc(/C=C/c2cc[n+]([Ru-4]345([n+]6ccccc6-c6cccc([n+]63)-c3cccc[n+]34)[n+]3c(cc(C(=O)[O-])c4ccccc43)-c3cc(C(=O)[O-])c4ccccc4[n+]35)cn2)c(OC)c1 [Compound 5] | 0.013 ± 0.002 | – | – | – |
| COc1ccc(/C=C/c2cc[n+]([Ru-4]345([n+]6ccccc6-c6cccc([n+]63)-c3cccc[n+]34)[n+]3c(cc(C(=O)[O-])c4ccccc43)-c3cc(C(=O)[O-])c4ccccc4[n+]35)cc2)c(OC)c1 [Compound 6] | – | 0.002 ± 0.00005 | 0.0081 ± 0.0006 ^f | – |
| O=C([O-])c1cc2[n+](c3ccccc13)[Ru-4]13([n+]4ccccc4)([n+]4ccccc4-c4cccc([n+]41)-c1cccc[n+]13)[n+]1c-2cc(C(=O)[O-])c2ccccc21 [Compound 8, [Ru(tpy)(bca)(pyridine)]] | 0.004 ± 0.00005 | – | – | 0.0059 ± 0.0005 |
